From patent publication US12729225B2, “Non-canonical SWI/SNF complex and uses thereof” (Dana-Farber Cancer Institute, Inc., priority 2018, dated 2026)

B1: DHX8 (protein, UniProt Q14562 1-1220, looked up)
ATP-dependent RNA helicase …: MAVAVAMAGALIGSEPGPAEELAKLEYLSLVSKVCTELDNHLGINDKDLAEFVISLAEKNTTFDTFKASLVKNGAEFTDSLISNLLRLIQTMRPPAKPSTSKDPVVKPKTEKEKLKELFPVLCQPDNPSVRTMLDEDDVKVAVDVLKELEALMPSAAGQEKQRDAEHRDRTKKKKRSRSRDRNRDRDRDRERNRDRDHKRRHRSRSRSRSRTRERNKVKSRYRSRSRSQSPPKDRKDRDKYGERNLDRWRDKHVDRPPPEEPTIGDIYNGKVTSIMQFGCFVQLEGLRKRWEGLVHISELRREGRVANVADVVSKGQRVKVKVLSFTGTKTSLSMKDVDQETGEDLNPNRRRNLVGETNEETSMRNPDRPTHLSLVSAPEVEDDSLERKRLTRISDPEKWEIKQMIAANVLSKEEFPDFDEETGILPKVDDEEDEDLEIELVEEEPPFLRGHTKQSMDMSPIKIVKNPDGSLSQAAMMQSALAKERRELKQAQREAEMDSIPMGLNKHWVDPLPDAEGRQIAANMRGIGMMPNDIPEWKKHAFGGNKASYGKKTQMSILEQRESLPIYKLKEQLVQAVHDNQILIVIGETGSGKTTQITQYLAEAGYTSRGKIGCTQPRRVAAMSVAKRVSEEFGCCLGQEVGYTIRFEDCTSPETVIKYMTDGMLLRECLIDPDLTQYAIIMLDEAHERTIHTDVLFGLLKKTVQKRQDMKLIVTSATLDAVKFSQYFYEAPIFTIPGRTYPVEILYTKEPETDYLDASLITVMQIHLTEPPGDILVFLTGQEEIDTACEILYERMKSLGPDVPELIILPVYSALPSEMQTRIFDPAPPGSRKVVIATNIAETSLTIDGIYYVVDPGFVKQKVYNSKTGIDQLVVTPISQAQAKQRAGRAGRTGPGKCYRLYTERAYRDEMLTTNVPEIQRTNLASTVLSLKAMGINDLLSFDFMDAPPMETLITAMEQLYTLGALDDEGLLTRLGRRMAEFPLEPMLCKMLIMSVHLGCSEEMLTIVSMLSVQNVFYRPKDKQALADQKKAKFHQTEGDHLTLLAVYNSWKNNKFSNPWCYENFIQARSLRRAQDIRKQMLGIMDRHKLDVVSCGKSTVRVQKAICSGFFRNAAKKDPQEGYRTLIDQQVVYIHPSSALFNRQPEWVVYHELVLTTKEYMREVTTIDPRWLVEFAPAFFKVSDPTKLSKQKKQQRLEPLYNRYEEPNAWRISRAFRRR
B2: HNRNPA2B1 (protein, UniProt P22626 1-353, looked up)
Heterogeneous nuclear …: MEKTLETVPLERKKREKEQFRKLFIGGLSFETTEESLRNYYEQWGKLTDCVVMRDPASKRSRGFGFVTFSSMAEVDAAMAARPHSIDGRVVEPKRAVAREESGKPGAHVTVKKLFVGGIKEDTEEHHLRDYFEEYGKIDTIEIITDRQSGKKRGFGFVTFDDHDPVDKIVLQKYHTINGHNAEVRKALSRQEMQEVQSSRSGRGGNFGFGDSRGGGGNFGPGPGSNFRGGSDGYGSGRGFGDGYNGYGGGPGGGNFGGSPGYGGGRGGYGGGGPGYGNQGGGYGGGYDNYGGGNYGSGNYNDFGNYNQQPSNYGPMKSGNFGGSRNMGGPYGGGNYGPGGSGGSGGYGGRSRY
B3: C1QBP (protein, UniProt Q07021 74-282, looked up)
Complement component 1 Q …: LHTDGDKAFVDFLSDEIKEERKIQKHKTLPKMSGGWELELNGTEAKLVRKVAGEKITVTFNINNSIPPTFDGEEEPSQGQKVEEQEPELTSTPNFVVEVIKNDDGKKALVLDCHYPEDEVGQEDEAESDIFSIREVSFQSTGESEWKDTNYTLNTDSLDWALYDHLMDFLADRGVDNTFADELVELSTALEHQEYITFLEDLKSFVKSQ
B4: P4HA1 (protein, UniProt P13674 18-534, looked up)
Prolyl 4-hydroxylase subunit …: HPGFFTSIGQMTDLIHTEKDLVTSLKDYIKAEEDKLEQIKKWAEKLDRLTSTATKDPEGFVGHPVNAFKLMKRLNTEWSELENLVLKDMSDGFISNLTIQRQYFPNDEDQVGAAKALLRLQDTYNLDTDTISKGNLPGVKHKSFLTAEDCFELGKVAYTEADYYHTELWMEQALRQLDEGEISTIDKVSVLDYLSYAVYQQGDLDKALLLTKKLLELDPEHQRANGNLKYFEYIMAKEKDVNKSASDDQSDQKTTPKKKGVAVDYLPERQKYEMLCRGEGIKMTPRRQKKLFCRYHDGNRNPKFILAPAKQEDEWDKPRIIRFHDIISDAEIEIVKDLAKPRLRRATISNPITGDLETVHYRISKSAWLSGYENPVVSRINMRIQDLTGLDVSTAEELQVANYGVGGQYEPHFDFARKDEPDAFKELGTGNRIATWLFYMSDVSAGGATVFPEVGASVWPKKGTAVFWYNLFASGEGDYSTRHAACPVLVGNKWVSNKWLHERGQEFRRPCTLSELE
B5: MDH2 (protein, UniProt P40926 25-338, looked up)
Malate dehydrogenase, …: AKVAVLGASGGIGQPLSLLLKNSPLVSRLTLYDIAHTPGVAADLSHIETKAAVKGYLGPEQLPDCLKGCDVVVIPAGVPRKPGMTRDDLFNTNATIVATLTAACAQHCPEAMICVIANPVNSTIPITAEVFKKHGVYNPNKIFGVTTLDIVRANTFVAELKGLDPARVNVPVIGGHAGKTIIPLISQCTPKVDFPQDQLTALTGRIQEAGTEVVKAKAGAGSATLSMAYAGARFVFSLVDAMNGKEGVVECSFVKSQETECTYFSTPLLLGKKGIEKNLGIGKVSSFEEKMISDAIPELKASIKKGEDFVKTLK
B6: VANGL1 (protein, UniProt Q8TAA9 1-524, looked up)
Vang-like protein 1: MDTESTYSGYSYYSSHSKKSHRQGERTRERHKSPRNKDGRGSEKSVTIQPPTGEPLLGNDSTRTEEVQDDNWGETTTAITGTSEHSISQEDIARISKDMEDSVGLDCKRYLGLTVASFLGLLVFLTPIAFILLPPILWRDELEPCGTICEGLFISMAFKLLILLIGTWALFFRKRRADMPRVFVFRALLLVLIFLFVVSYWLFYGVRILDSRDRNYQGIVQYAVSLVDALLFIHYLAIVLLELRQLQPMFTLQVVRSTDGESRFYSLGHLSIQRAALVVLENYYKDFTIYNPNLLTASKFRAAKHMAGLKVYNVDGPSNNATGQSRAMIAAAARRRDSSHNELYYEEAEHERRVKKRKARLVVAVEEAFIHIQRLQAEEQQKAPGEVMDPREAAQAIFPSMARALQKYLRITRQQNYHSMESILQHLAFCITNGMTPKAFLERYLSAGPTLQYDKDRWLSTQWRLVSDEAVTNGLRDGIVFVLKCLDFSLVVNVKKIPFIILSEEFIDPKSHKFVLRLQSETSV
B7: HP1BP3 (protein, UniProt Q5SSJ5 2-553, looked up)
Heterochromatin protein …: ATDTSQGELVHPKALPLIVGAQLIHADKLGEKVEDSTMPIRRTVNSTRETPPKSKLAEGEEEKPEPDISSEESVSTVEEQENETPPATSSEAEQPKGEPENEEKEENKSSEETKKDEKDQSKEKEKKVKKTIPSWATLSASQLARAQKQTPMASSPRPKMDAILTEAIKACFQKSGASVVAIRKYIIHKYPSLELERRGYLLKQALKRELNRGVIKQVKGKGASGSFVVVQKSRKTPQKSRNRKNRSSAVDPEPQVKLEDVLPLAFTRLCEPKEASYSLIRKYVSQYYPKLRVDIRPQLLKNALQRAVERGQLEQITGKGASGTFQLKKSGEKPLLGGSLMEYAILSAIAAMNEPKTCSTTALKKYVLENHPGTNSNYQMHLLKKTLQKCEKNGWMEQISGKGFSGTFQLCFPYYPSPGVLFPKKEPDDSRDEDEDEDESSEEDSEDEEPPPKRRLQKKTPAKSPGKAASVKQRGSKPAPKVSAAQRGKARPLPKKAPPKAKTPAKKTRPSSTVIKKPSGGSSKKPATSARKEVKLPGKGKSTMKKSFRVKK

Test system: mSWI/SNF complexes
Test: mSWI/SNF complex purification with HA-tagged baits and mass spectrometry (peptide counts)
Set-up: species or system human
Details: 293_HA-BRD7: HA-BRD7 bait purification, total peptide count per co-purified protein

Molecule | Total
B1 | 10
B2 | 12
B3 | 11
B4 | 10
B5 | 10
B6 | 9
B7 | 9

Same assay, conditions: 293_HA-BRD7: HA-BRD7 bait purification, unique peptide count per co-purified protein

Molecule | Unique
B1 | 10
B2 | 9
B3 | 9
B4 | 9
B5 | 9
B6 | 9
B7 | 9
